Experimental data taken from paper PMC9098222.
No constants are given. Whether binding was seen depends on the method and setting. Binding seen in cells or lysates may run through a third protein. Some results given as binding are weak or reduced against the parent protein; the word gives no strength. Sequences can lack the tags named with a protein.

T1: Myc-tagged IRS4 1–200 (PH domain only) (human) (UniProt O14654)
T1 sequence: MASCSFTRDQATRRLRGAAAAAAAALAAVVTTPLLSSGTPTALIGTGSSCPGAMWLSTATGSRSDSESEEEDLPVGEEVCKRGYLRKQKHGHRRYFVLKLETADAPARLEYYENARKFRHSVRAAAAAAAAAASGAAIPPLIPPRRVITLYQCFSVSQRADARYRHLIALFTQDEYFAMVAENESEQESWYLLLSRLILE

T2: Myc-tagged IRS4 (insulin receptor substrate 4), full-length (human) (UniProt O14654)
T2 sequence: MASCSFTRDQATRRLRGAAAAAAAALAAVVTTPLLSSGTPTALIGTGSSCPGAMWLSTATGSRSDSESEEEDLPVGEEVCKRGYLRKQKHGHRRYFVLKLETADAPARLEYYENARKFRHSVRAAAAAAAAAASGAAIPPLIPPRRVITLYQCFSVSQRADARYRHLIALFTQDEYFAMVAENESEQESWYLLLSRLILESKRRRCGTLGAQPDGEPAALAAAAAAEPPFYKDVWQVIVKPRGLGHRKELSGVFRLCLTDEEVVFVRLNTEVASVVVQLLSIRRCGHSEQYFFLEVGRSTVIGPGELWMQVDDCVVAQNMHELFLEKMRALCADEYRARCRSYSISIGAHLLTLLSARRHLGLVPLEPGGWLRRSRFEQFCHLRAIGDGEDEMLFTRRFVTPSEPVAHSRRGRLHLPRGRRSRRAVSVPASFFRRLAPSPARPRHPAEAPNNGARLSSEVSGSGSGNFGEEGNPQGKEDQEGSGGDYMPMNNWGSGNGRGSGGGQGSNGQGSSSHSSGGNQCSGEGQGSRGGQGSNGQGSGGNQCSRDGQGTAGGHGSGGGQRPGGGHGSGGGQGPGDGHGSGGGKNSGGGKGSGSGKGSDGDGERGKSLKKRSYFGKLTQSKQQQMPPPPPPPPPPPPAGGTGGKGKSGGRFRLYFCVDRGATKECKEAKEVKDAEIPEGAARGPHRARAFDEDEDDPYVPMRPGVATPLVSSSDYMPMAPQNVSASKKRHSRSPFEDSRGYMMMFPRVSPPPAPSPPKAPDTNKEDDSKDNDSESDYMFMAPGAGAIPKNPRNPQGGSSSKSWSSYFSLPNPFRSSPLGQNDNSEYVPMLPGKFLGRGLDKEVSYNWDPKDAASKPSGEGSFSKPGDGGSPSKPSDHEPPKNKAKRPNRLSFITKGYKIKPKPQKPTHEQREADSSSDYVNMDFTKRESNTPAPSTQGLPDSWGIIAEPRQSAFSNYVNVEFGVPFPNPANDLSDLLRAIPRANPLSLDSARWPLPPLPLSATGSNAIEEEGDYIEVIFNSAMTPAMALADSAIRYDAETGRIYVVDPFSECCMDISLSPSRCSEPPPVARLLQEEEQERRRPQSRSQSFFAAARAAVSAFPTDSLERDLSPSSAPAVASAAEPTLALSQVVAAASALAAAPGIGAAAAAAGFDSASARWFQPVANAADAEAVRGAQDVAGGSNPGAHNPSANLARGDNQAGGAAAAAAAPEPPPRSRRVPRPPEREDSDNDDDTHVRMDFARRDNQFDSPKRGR

T3: Myc-tagged IRS4 200–400 (PTB domain only) (human) (UniProt O14654)
T3 sequence: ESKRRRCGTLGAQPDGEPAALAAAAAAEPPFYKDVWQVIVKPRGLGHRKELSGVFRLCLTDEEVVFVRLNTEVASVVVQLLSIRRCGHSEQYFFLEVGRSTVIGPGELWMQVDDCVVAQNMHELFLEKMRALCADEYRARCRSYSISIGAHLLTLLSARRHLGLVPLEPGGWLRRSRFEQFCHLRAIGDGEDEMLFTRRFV

B1: YFP-tagged IRS4 1–334 (domain or fragment, UniProt O14654 1-334)
chain: MASCSFTRDQATRRLRGAAAAAAAALAAVVTTPLLSSGTPTALIGTGSSCPGAMWLSTATGSRSDSESEEEDLPVGEEVCKRGYLRKQKHGHRRYFVLKLETADAPARLEYYENARKFRHSVRAAAAAAAAAASGAAIPPLIPPRRVITLYQCFSVSQRADARYRHLIALFTQDEYFAMVAENESEQESWYLLLSRLILESKRRRCGTLGAQPDGEPAALAAAAAAEPPFYKDVWQVIVKPRGLGHRKELSGVFRLCLTDEEVVFVRLNTEVASVVVQLLSIRRCGHSEQYFFLEVGRSTVIGPGELWMQVDDCVVAQNMHELFLEKMRALCAD
B2: YFP-tagged IRS4 401–1257 (domain or fragment, UniProt O14654 401-1257)
chain: TPSEPVAHSRRGRLHLPRGRRSRRAVSVPASFFRRLAPSPARPRHPAEAPNNGARLSSEVSGSGSGNFGEEGNPQGKEDQEGSGGDYMPMNNWGSGNGRGSGGGQGSNGQGSSSHSSGGNQCSGEGQGSRGGQGSNGQGSGGNQCSRDGQGTAGGHGSGGGQRPGGGHGSGGGQGPGDGHGSGGGKNSGGGKGSGSGKGSDGDGERGKSLKKRSYFGKLTQSKQQQMPPPPPPPPPPPPAGGTGGKGKSGGRFRLYFCVDRGATKECKEAKEVKDAEIPEGAARGPHRARAFDEDEDDPYVPMRPGVATPLVSSSDYMPMAPQNVSASKKRHSRSPFEDSRGYMMMFPRVSPPPAPSPPKAPDTNKEDDSKDNDSESDYMFMAPGAGAIPKNPRNPQGGSSSKSWSSYFSLPNPFRSSPLGQNDNSEYVPMLPGKFLGRGLDKEVSYNWDPKDAASKPSGEGSFSKPGDGGSPSKPSDHEPPKNKAKRPNRLSFITKGYKIKPKPQKPTHEQREADSSSDYVNMDFTKRESNTPAPSTQGLPDSWGIIAEPRQSAFSNYVNVEFGVPFPNPANDLSDLLRAIPRANPLSLDSARWPLPPLPLSATGSNAIEEEGDYIEVIFNSAMTPAMALADSAIRYDAETGRIYVVDPFSECCMDISLSPSRCSEPPPVARLLQEEEQERRRPQSRSQSFFAAARAAVSAFPTDSLERDLSPSSAPAVASAAEPTLALSQVVAAASALAAAPGIGAAAAAAGFDSASARWFQPVANAADAEAVRGAQDVAGGSNPGAHNPSANLARGDNQAGGAAAAAAAPEPPPRSRRVPRPPEREDSDNDDDTHVRMDFARRDNQFDSPKRGR
B3: YFP-tagged IRS4 335–400 (domain or fragment, UniProt O14654 335-400)
chain: EYRARCRSYSISIGAHLLTLLSARRHLGLVPLEPGGWLRRSRFEQFCHLRAIGDGEDEMLFTRRFV
B4: YFP-tagged IRS4 200–400 (domain or fragment, UniProt O14654 200-400)
chain: T3 sequence
B5: FER E740R (single mutant, made from pEGFP-FER) (enzyme, UniProt P16591 1-822)
chain: MGFGSDLKNSHEAVLKLQDWELRLLETVKKFMALRIKSDKEYASTLQNLCNQVDKESTVQMNYVSNVSKSWLLMIQQTEQLSRIMKTHAEDLNSGPLHRLTMMIKDKQQVKKSYIGVHQQIEAEMIKVTKTELEKLKCSYRQLIKEMNSAKEKYKEALAKGKETEKAKERYDKATMKLHMLHNQYVLALKGAQLHQNQYYDITLPLLLDSLQKMQEEMIKALKGIFDEYSQITSLVTEEIVNVHKEIQMSVEQIDPSTEYNNFIDVHRTTAAKEQEIEFDTSLLEENENLQANEIMWNNLTAESLQVMLKTLAEELMQTQQMLLNKEEAVLELEKRIEESSETCEKKSDIVLLLSQKQALEELKQSVQQLRCTEAKFSAQKELLEQKVQENDGKEPPPVVNYEEDARSVTSMERKERLSKFESIRHSIAGIIRSPKSALGSSALSDMISISEKPLAEQDWYHGAIPRIEAQELLKKQGDFLVRESHGKPGEYVLSVYSDGQRRHFIIQYVDNMYRFEGTGFSNIPQLIDHHYTTKQVITKKSGVVLLNPIPKDKKWILSHEDVILGELLGKGNFGEVYKGTLKDKTSVAVKTCKEDLPQELKIKFLQEAKILKQYDHPNIVKLIGVCTQRQPVYIIMELVSGGDFLTFLRRKKDELKLKQLVKFSLDAAAGMLYLESKNCIHRDLAARNCLVGENNVLKISDFGMSRQEDGGVYSSSGLKQIPIKWTAPEALNYGRYSSRSDVWSFGILLWETFSLGVCPYPGMTNQQAREQVERGYRMSAPQHCPEDISKIMMKCWDYKPENRPKFSELQKELTIIKRKLT
B6: GFP-FER 563–822 (kinase domain) (domain or fragment, UniProt P16591 563-822)
chain: VILGELLGKGNFGEVYKGTLKDKTSVAVKTCKEDLPQELKIKFLQEAKILKQYDHPNIVKLIGVCTQRQPVYIIMELVSGGDFLTFLRRKKDELKLKQLVKFSLDAAAGMLYLESKNCIHRDLAARNCLVGENNVLKISDFGMSRQEDGGVYSSSGLKQIPIKWTAPEALNYGRYSSESDVWSFGILLWETFSLGVCPYPGMTNQQAREQVERGYRMSAPQHCPEDISKIMMKCWDYKPENRPKFSELQKELTIIKRKLT
B7: GFP-FER 447–550 (SH2 domain) (domain or fragment, UniProt P16591 447-550)
chain: MISISEKPLAEQDWYHGAIPRIEAQELLKKQGDFLVRESHGKPGEYVLSVYSDGQRRHFIIQYVDNMYRFEGTGFSNIPQLIDHHYTTKQVITKKSGVVLLNPI

target: GFP-tagged FER (UniProt P16591); test: co-IP; HEK293FT cells co-transfected with GFP-tagged FER and YFP-tagged IRS4 truncations; immunoprecipitation with FER antibody, immunoblot with YFP antibody

binding	Binder
binds	B1
no binding	B2
no binding	B3
binds weakly	B4

target: T1, Myc-tagged IRS4 1–200 (PH domain only) (human); test: co-IP; HEK293FT cells transiently co-transfected; lysis in 20 mM HEPES pH 7.5, 150 mM NaCl, 1% Nonidet P-40, 1 mM sodium orthovanadate; Myc-tagged IRS4 form precipitated with anti-Myc resin, partners found by immunoblot; some panels with or without co-expressed FLAG-IRS1, FLAG-PIK3R1 or FER

binding	Binder
binds	B5
binds	B6
no binding	B7

target: T2, Myc-tagged IRS4 (insulin receptor substrate 4), full-length (human); test: as above

binding	Binder
binds	B5
binds	B6
no binding	B7

target: T3, Myc-tagged IRS4 200–400 (PTB domain only) (human); test: as above

binding	Binder
binds	B6
no binding	B7
